The list shows only some results of the screen, not a fair sample: it gathers tests that were run many times, whatever their T/C, doses with no T/C, and many T/C values between a quarter and a half above the control. Other doses and runs of a compound stand elsewhere. T/C gives the treated animals as a percentage of the vehicle group. Some doses have a count of surviving animals in place of a T/C: the source holds a T/C of zero for them, seemingly a mark for toxic or unscored doses. Some doses without a T/C left all or most animals alive at the check, yet need not have been tolerated: the source hardly ever lists a survival T/C far under the control, and the zero likely stands for such cases as well. Survivors were counted at the toxicity check, usually on the fifth day, unless a day is given; later deaths do not show. Schedules are NCI's codes, taken here to give the interval after Q, in days (D) or hours (H), and the number of doses after X. Some entries were tested several times; the values are given in rising order. For survival time, the PubChem record calls one and a half times the control and up active, and a quarter to a half above the control has no call in these data; cut-offs in other NCI protocols can differ. Some T/C values are followed by the survivors on the day toxicity was checked, most often the fifth; without a count, all were alive then. Signs of the kind (2×) stand for listed records that agree.
Tested on: BDF1 mice, B16 melanoma ip, median survival T/C
Test: NCI In Vivo Anticancer Drug Screen. Data for tumor model B16 Melanoma (intraperitoneal) in B6D2F1 (BDF1) mice
Conditions: T/C endpoint: median survival time, higher T/C = longer survival
Experimental: The antitumor activity of compounds was measured in mice bearing transplantable tumors. Survival or tumor size were measured and the results are expressed as the measurement made in the treated group (T) divided by the measurement made in the vehicle treated control group (C). The tumor model used in this assay is B16 Melanoma (intraperitoneal) in B6D2F1 (BDF1) mice

[1] = dose: 0.25 mg/kg/injection, schedule: Q01DX009 (ip), vehicle: saline with Tween-80
[2] = dose: 4.0 mg/kg/injection, schedule: Q01DX009 (ip), vehicle: saline with Tween-80
[3] = dose: 100.0 mg/kg/injection, schedule: Q01DX009 (ip), vehicle: saline with Tween-80
[4] = dose: 400.0 mg/kg/injection, schedule: Q01DX009 (ip), vehicle: Klucel (hydroxypropylcellulose) (HPC)
[5] = dose: 25.0 mg/kg/injection, schedule: Q01DX009 (ip), vehicle: saline with Tween-80

CCn1c(O)c(C=N)c(=O)n(CC)c1=O
survivor count (dose: 75.0 mg/kg/injection, schedule: Q04DX003 (ip), vehicle: Klucel (hydroxypropylcellulose) (HPC)): 10 of 10 | survivor count (dose: 300.0 mg/kg/injection, schedule: Q04DX003 (ip), vehicle: Klucel (hydroxypropylcellulose) (HPC)): 9 of 10

COC(C(=O)C(O)C(C)O)C1Cc2cc3cc(OC4CC(OC(C)=O)C(OC5CC(O)C(OC)C(C)O5)C(C)O4)cc(O)c3c(O)c2C(=O)C1OC1CC(OC2CC(OC3CC(C)(O)C(OC(=O)C(C)C)C(C)O3)C(O)C(C)O2)C(O)C(C)O1 (stereo not given)
T/C (dose: 0.12 mg/kg/injection, schedule: Q01DX009 (ip), vehicle: saline with Tween-80): 138 % of control | T/C (dose: 0.12 mg/kg/injection, schedule: Q01DX009 (ip), vehicle: saline): 128, 136, 138 % of control | T/C [1]: 137 % of control | T/C (dose: 0.5 mg/kg/injection, schedule: Q01DX009 (ip), vehicle: saline with Tween-80): 140, 153, 159 % of control (2×) | T/C (dose: 0.5 mg/kg/injection, schedule: Q01DX009 (ip), vehicle: saline): 130 % of control | T/C (dose: 1.0 mg/kg/injection, schedule: Q01DX009 (ip), vehicle: saline with Tween-80): 156, 169, 180, 197 % of control | T/C (dose: 1.0 mg/kg/injection, schedule: Q01DX009 (ip), vehicle: saline): 142 % of control | T/C (dose: 2.0 mg/kg/injection, schedule: Q01DX009 (ip), vehicle: saline with Tween-80): 146, 179, 180, 186 % of control [9 of 10 alive] | survivor count (dose: 2.0 mg/kg/injection, schedule: Q01DX009 (ip), vehicle: saline): 10 of 10 | survivor count [2]: 0 of 10, 3 of 10, 9 of 10 | survivor count (dose: 4.0 mg/kg/injection, schedule: Q01DX009 (ip), vehicle: saline): 6 of 10 and 9 of 10 | survivor count (dose: 8.0 mg/kg/injection, schedule: Q01DX009 (ip), vehicle: saline with Tween-80): 0 of 10

O=C(NCCCCCCCCCCNC(=O)N1CC1)N1CC1
T/C (dose: 1.5 mg/kg/injection, schedule: Q01DX009 (ip), vehicle: saline): 127 % of control | survivor count (dose: 6.0 mg/kg/injection, schedule: Q01DX009 (ip), vehicle: saline): 10 of 10 | survivor count (dose: 12.0 mg/kg/injection, schedule: Q01DX009 (ip), vehicle: saline): 8 of 10

N#CCN(CC#N)CC#N
survivor count (dose: 1.56 mg/kg/injection, schedule: Q04DX003 (ip), vehicle: saline with Tween-80): 9 of 10

CCC(C)C1NC(=O)C(NC(=O)c2c3nc4c(C(=O)NC5C(=O)NC(C(C)CC)C(=O)N6CCCC6C(=O)N(C)CC(=O)N(C)C(C(C)C)C(=O)OC5C)ccc(C)c4oc-3c(C)c(=O)c2Cl)C(C)OC(=O)C(C(C)C)N(C)C(=O)CN(C)C(=O)C2CCCN2C1=O (stereo not given)
T/C (dose: 2.5 mg/kg/injection, schedule: Q01DX009 (ip), vehicle: Klucel (hydroxypropylcellulose) (HPC)): 137 % of control | T/C (dose: 5.0 mg/kg/injection, schedule: Q01DX009 (ip), vehicle: Klucel (hydroxypropylcellulose) (HPC)): 146 % of control

CC(C)(C)c1ccc(CN2CCN(C(c3ccccc3)c3ccc(Cl)cc3)CC2)cc1 (stereo not given)
survivor count (dose: 0.09 mg/kg/injection, schedule: Q01DX009 (ip), vehicle: Klucel (hydroxypropylcellulose) (HPC)): 10 of 10 | survivor count (dose: 0.19 mg/kg/injection, schedule: Q01DX009 (ip), vehicle: Klucel (hydroxypropylcellulose) (HPC)): 10 of 10 | survivor count (dose: 0.78 mg/kg/injection, schedule: Q01DX009 (ip), vehicle: Klucel (hydroxypropylcellulose) (HPC)): 9 of 10 | survivor count (dose: 1.56 mg/kg/injection, schedule: Q01DX009 (ip), vehicle: Klucel (hydroxypropylcellulose) (HPC)): 10 of 10 | survivor count (dose: 3.12 mg/kg/injection, schedule: Q01DX009 (ip), vehicle: Klucel (hydroxypropylcellulose) (HPC)): 10 of 10 | survivor count (dose: 6.25 mg/kg/injection, schedule: Q01DX009 (ip), vehicle: Klucel (hydroxypropylcellulose) (HPC)): 8 of 10 | survivor count (dose: 12.5 mg/kg/injection, schedule: Q01DX009 (ip), vehicle: Klucel (hydroxypropylcellulose) (HPC)): 10 of 10 | survivor count (dose: 25.0 mg/kg/injection, schedule: Q01DX009 (ip), vehicle: Klucel (hydroxypropylcellulose) (HPC)): 9 of 10 and 10 of 10 | survivor count (dose: 50.0 mg/kg/injection, schedule: Q01DX009 (ip), vehicle: Klucel (hydroxypropylcellulose) (HPC)): 10 of 10

CNC(=O)n1c(N)nc(-c2ccccc2)c1-c1ccccc1
survivor count [3]: 6 of 10

O=c1c2ccccc2[nH]c(=S)n1C1CCCCC1
survivor count [4]: 10 of 10

COc1ccc2nc3cc(Cl)ccc3c(NCCO)c2c1
survivor count (dose: 150.0 mg/kg/injection, schedule: Q01DX009 (ip), vehicle: saline with Tween-80): 5 of 6 | survivor count (dose: 300.0 mg/kg/injection, schedule: Q01DX009 (ip), vehicle: saline with Tween-80): 0 of 6

CSc1nc(N)cc(NC(=O)CCl)n1
survivor count [3]: 6 of 6 | survivor count (dose: 200.0 mg/kg/injection, schedule: Q01DX009 (ip), vehicle: saline with Tween-80): 3 of 6

C1CN1P1(N2CC2)=NP(N2CC2)(N2CC2)=NP(N2CC2)(N2CC2)=N1
T/C [1]: 128 % of control | T/C [2]: 125 % of control | T/C (dose: 4.0 mg/kg/injection, schedule: Q02DX009 (ip), vehicle: saline with Tween-80): 127 and 133 % of control | T/C (dose: 8.0 mg/kg/injection, schedule: Q02DX009 (ip), vehicle: saline with Tween-80): 139 % of control | survivor count (dose: 16.0 mg/kg/injection, schedule: Q02DX009 (ip), vehicle: saline with Tween-80): 10 of 10 | survivor count (dose: 32.0 mg/kg/injection, schedule: Q02DX009 (ip), vehicle: saline with Tween-80): 10 of 10 | survivor count (dose: 64.0 mg/kg/injection, schedule: Q02DX009 (ip), vehicle: saline with Tween-80): 8 of 10

CCC(=O)c1ccc2c(c1)N(CCCN(C)C)c1ccccc1S2
survivor count [5]: 9 of 10 | survivor count (dose: 50.0 mg/kg/injection, schedule: Q01DX009 (ip), vehicle: saline with Tween-80): 0 of 10

Cc1cc(C)c(-c2cc(O)c(C)cc2O)c(C)c1
survivor count [4]: 10 of 10

N=C(N)c1ccc(/C=C/c2ccc(C(=N)N)cc2O)cc1
survivor count (dose: 100.0 mg/kg/injection, schedule: Q01DX009 (ip), vehicle: water): 0 of 10

c1ccc2c(c1)CNNC2
survivor count (dose: 25.0 mg/kg/injection, schedule: Q01DX009 (ip), vehicle: saline): 7 of 10 | survivor count (dose: 400.0 mg/kg/injection, schedule: Q01DX009 (ip), vehicle: saline): 9 of 10

CNC(=O)Nc1ccc(C)c(Cl)c1
survivor count [4]: 10 of 10

O=[N+]([O-])c1ccc(C=C2C(Cl)=C(Cl)C(Cl)=C2Cl)cc1
survivor count [5]: 10 of 10

COc1cccc2c1C(=O)c1c(O)c3c(c(O)c1C2=O)C[C@@](O)(C(=O)COC(=O)CCCCC(=O)O)C[C@@H]3OC1CC(NC(=O)C(F)(F)F)C(O)C(C)O1 (stereo not given in full)
T/C (dose: 9.38 mg/kg/injection, schedule: Q01DX001 (ip), vehicle: other): 131 % of control | T/C (dose: 18.75 mg/kg/injection, schedule: Q01DX001 (ip), vehicle: other): 136 % of control | survivor count (dose: 150.0 mg/kg/injection, schedule: Q01DX001 (ip), vehicle: other): 4 of 10

Cc1cc(=NO)cc(C)n1O
survivor count (dose: 100.0 mg/kg/injection, schedule: Q01DX009 (ip), vehicle: distilled water + alcohol): 10 of 10 | survivor count (dose: 400.0 mg/kg/injection, schedule: Q01DX009 (ip), vehicle: distilled water + alcohol): 9 of 10
